At least one structure is not confirmed: it was looked up by name or label, or the drawing left a doubt.
Assays:
Format in all cases: cell-based, human
[1] = test system: MCL cell lines (Jeko-1, Mino, UPN-1, Z-138); experiment: Confocal microscopy of total cellular LC3; conditions: 4 cell lines, averaged across 4, 8, 24 hours, vs untreated control, P<0.0001
[2] = test system: CD74 in Jeko-1 and Mino cell lines; experiment: Immunoblot for total cellular CD74; conditions: 24 hours
[3] = test system: Jeko-1 and Mino cell lines; experiment: Transmission electron microscopy of ultrastructural changes; conditions: Jeko and Mino cells; chloroquine 40 μM, FTY720 10 μM
Jeko-1 and Mino cells [4] = experiment: Acridine orange staining, flow cytometry (lysosomal membrane permeability); conditions: 8 hours, vs untreated control
four MCL cell lines = experiment: Cell viability by annexin-V/PI staining and flow cytometry, four lines together; conditions: Jeko-1, Z-138 and UPN-1 cell lines, 24 hours
Procedure: FIG. 4. FTY720 sensitizes MCL cell lines and primary patient tumor cells to milatuzumab-mediated cytotoxicity. (A) Four MCL cell lines and primary cells from 6 patients were treated with FTY720 and/or milatuzumab plus cross-linking antibodies at the indicated concentrations. (B) Patient characteristics. (C) Individual patient responses. (D) Representative histograms summarizing patient responses. Cell death was determined by annexin V/PI staining and flow cytometry at 24 hours. Data are shown as the percentage of annexin V−/PI− cells (live cells) and are normalized to untreated controls.
To assess lysosomal volume, FTY720 treated cells were incubated with LYSOTRACKER™ green DND-26. To assess lysosomal membrane permeability, FTY720 treated cells were incubated with acridine orange (MOLECULAR PROBES; INVITROGEN). For analysis of cell viability, MCL cell lines (0.5×10^6/ml) and primary cells (1×10^6/ml) were treated with FTY720, milatuzumab, and the combination of both. […] Cell viability was measured at 24 hours by dual staining with annexin-V FITC and propidium iodide (PI). A total of 10,000 events were collected and analyzed using WinMDI.
The in vitro survival of four MCL cell lines treated with FTY720, milatuzumab in the presence of a cross-linking antibody, and the combination of FTY720 and milatuzumab was determined at 24 hours by annexin-V/PI staining and flow cytometry. […]

[5] = test system: surface CD74 on Jeko-1 and Mino cells; experiment: CD74-FITC staining and flow cytometry (CD74 MFI)
[6] = test system: MCL cell lines (Jeko-1, Mino, UPN-1, Z-138); experiment: Immunoblot for p62; conditions: UPN-1 and Z-138 cells, 24 hours
From the text: (§1) FIG. 1. […] Actin was used as loading control. […] Actin was used as loading control.

MCL cells = experiment: Beclin-1 expression; conditions: 1 and 4 hours incubation
[7] = test system: CD74 in Jeko-1, Mino, UPN-1 and Z-138 cells; experiment: Confocal microscopy of total CD74 with rhodamine-conjugated milatuzumab; conditions: for CD74 fluorescence intensity: 4 MCL cell lines, 4, 8 and 24 hours, chloroquine 40 μM, rapamycin 10 μM
Jeko-1 and Mino cells [8] = experiment: Live cell imaging with LYSOSENSOR green; conditions: images every 10 minutes for 5 hours
Jeko-1 and Mino cells [9] = experiment: JC-1 staining and flow cytometry (mitochondrial transmembrane potential); conditions: 8 and 24 hours
Jeko-1 and Mino cells [10] = experiment: LYSOTRACKER green / annexin V-PE flow cytometry (lysosomal volume); conditions: 8 hours
[11] = test system: CD74 mRNA in Jeko-1 and Mino cells; experiment: Real-time RT-PCR of CD74 mRNA; conditions: 8 or 24 hours
[12] = test system: MCL cell lines (Jeko-1, Mino, UPN-1, Z-138); experiment: Immunoblot for LC3-I/LC3-II (autophagic flux); conditions: Jeko-1, Mino and Z-138 cell lines, 24 hours, Western blotting
From the text: as §1

SMILES | LC3 fluorescence intensity [1] | amount of CD74 (Western blot) [2] | ultrastructural morphologic changes (TEM) [3] | acridine orange green fluorescence (FL1) (Jeko-1 and Mino cells [4]) | activity as single agents (four MCL cell lines) | CD74 MFI (surface) ([5]; 8 and 24 hours, vs untreated control or rapamycin) | p62 levels [6] | Beclin-1 levels (MCL cells) | CD74 fluorescence intensity [7] | total CD74 levels ([7]; with nonimmobilized rhodamine-conjugated milatuzumab) | LYSOSENSOR green fluorescence (Jeko-1 and Mino cells [8]) | mitochondrial transmembrane potential (ΔΨm) (Jeko-1 and Mino cells [9]) | LYSOTRACKER fluorescence (lysosomal volume) (Jeko-1 and Mino cells [10]) | CD74 mRNA levels [11] | LC3-II levels [12] | CD74 MFI (surface) ([5]; by 24 hours)
CCCCCCCCc1ccc(CCC(N)(CO)CO)cc1 [FTY720, fingolimod] | statistically significant increase in LC3 fluorescence intensity | significantly increased the amount of CD74 | developed enlarged autolysosomes | significant increase of green fluorescence | only modest activity | significant increase of CD74 MFI | significant increase of p62 levels | remained unchanged | statistically significant increase in CD74 fluorescence intensity | significant increase in total CD74 levels | increased progressively | not associated with loss of mitochondrial transmembrane potential | increase in LYSOTRACKER™ fluorescence | no change in CD74 mRNA levels | increased levels of LC3-II | –
CO[C@H]1C[C@@H]2CC[C@@H](C)[C@@](O)(O2)C(=O)C(=O)N2CCCC[C@H]2C(=O)O[C@H]([C@H](C)C[C@@H]2CC[C@@H](O)[C@H](OC)C2)CC(=O)[C@H](C)/C=C(\C)[C@@H](O)[C@@H](OC)C(=O)[C@H](C)C[C@H](C)/C=C/C=C/C=C/1C [rapamycin] | – | – | – | did not induce an increase of green fluorescence | – | – | – | – | did not cause CD74 accumulation | – | – | – | – | – | – | decreased CD74 MFI

— patent US8591892B2, “FTY720 increases CD74 expression and sensitizes cancer cells to anti-CD74 antibody-mediated cell death” (The Ohio State University, priority 2011, dated 2013)
